In article PMC6404601:
Residue numbers refer to the chain shown, from its start. Results are given in words; binding and its absence hold for the method and conditions named. Some entries that bind do so weakly or less than the wild type. Sequences can lack the tags named with a protein.

Assays:
[1] = biological target: T1, DBD-Rho5^G12V (LexA DNA-binding domain fusion of Rho5 G12V, with C328S) (S. cerevisiae) (UniProt P53879); experiment: two-hybrid; LexA DBD fusions of Rho5 (pEG202, all with C328S) and AD-Atg21 (pJG4-5) in strain EGY48 with the LEU2 reporter; growth on SC-Gal plates lacking Leu (and Trp and His)
T1 sequence: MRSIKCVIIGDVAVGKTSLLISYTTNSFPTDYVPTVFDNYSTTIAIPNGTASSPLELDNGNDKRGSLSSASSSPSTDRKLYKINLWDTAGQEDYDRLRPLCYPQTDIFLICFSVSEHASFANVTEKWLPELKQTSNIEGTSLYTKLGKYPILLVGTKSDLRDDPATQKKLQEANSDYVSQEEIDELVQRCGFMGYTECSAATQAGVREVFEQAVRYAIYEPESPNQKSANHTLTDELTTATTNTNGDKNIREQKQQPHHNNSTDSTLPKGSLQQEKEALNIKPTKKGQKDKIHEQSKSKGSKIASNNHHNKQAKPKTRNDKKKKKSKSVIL

[2] = biological target: T2, DBD-Rho5^K16N (LexA DNA-binding domain fusion of Rho5 K16N, with C328S) (S. cerevisiae) (UniProt P53879); experiment: as above
T2 sequence: T1 sequence with V12G, K16N

- binding [1]: binds
- binding [2]: no binding
B1: AD-Atg21 (activation domain fusion of Atg21) (protein, UniProt Q02887 1-496)
chain: MKVLQFNQDATCCVVAASSHQISIFNCDPFGKCFEIDTKNSKKKTSNNNGSASNSESRNNEESILITNGSRDRTDAEEEEDNEDNALVTGNILKEGEFVIEMLFSTSLIAIADRGQGLNKGKKLKIVNTKRKCTICEIVFPHEIVDVVMNRKRMCVLLESDQIFIYDISCMKPLETIDLWEDHYKRSQANSFSNASNTGTLEGDSANLNRVATNLLANATQKSVNGSNPSVRTRRNSLRSKIRPRMVLSNDDRSILCFTAYSSPKKNKPNSEALYDVVIYDTLNVTPVNYLNSVHKGNVACLAVSHDGKLLATASDKGTIIRVFHTGVDSDYMSSRSLFKEFRRGTRLCNLYQLAFDKSMTMIGCVGDTDTIHLFKLDDASNSLPGDNSSNGHWNEEEYILASNSNPSMGTPKEIPLSKPRIANYFSKKIKSSIPNQNLSRNFAYITVNESNRSCLGFPDEFPNQVYIASDDGTFSIYSIPSKPGECVLTKNNKFT
